In patent US20110319427A1 (priority 2009, published 2011):
The name of at least one read-out is uncertain.

Tests used:
[1] = tested on: primary AML cells; experiment: viability of primary AML cells; type: cell-based
[2] = tested on: primary CLL cells; experiment: viability of primary CLL cells; type: cell-based

`Nc1ccc(O)c2ncccc12` [5AHQ, 5-amino-8-hydroxyquinoline] was tested, and the LD50 [1] was “low micromolar range” and the LD50 [2] was “low micromolar range”.
